# In patent US6344443:
# Chains of the proteins cited; added tags and fusions are not shown. Residues count along the entry.
# UniProt P19438, residues 41-201: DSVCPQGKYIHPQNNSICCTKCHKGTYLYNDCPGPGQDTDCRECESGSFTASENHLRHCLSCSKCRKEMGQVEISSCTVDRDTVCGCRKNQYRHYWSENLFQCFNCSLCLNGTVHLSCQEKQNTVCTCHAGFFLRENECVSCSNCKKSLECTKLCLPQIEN
# UniProt P20333, residues 23-257: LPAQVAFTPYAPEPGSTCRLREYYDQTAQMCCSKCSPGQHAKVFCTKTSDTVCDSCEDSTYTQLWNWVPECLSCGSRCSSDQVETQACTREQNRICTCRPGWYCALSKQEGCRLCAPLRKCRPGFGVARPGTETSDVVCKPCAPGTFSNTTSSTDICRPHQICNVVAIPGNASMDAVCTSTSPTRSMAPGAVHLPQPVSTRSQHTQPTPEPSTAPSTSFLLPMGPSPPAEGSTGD
# Results are given in words; binding and its absence hold for the method and conditions named. Some results given as binding are weak or reduced against the parent protein; the word gives no strength. Where a sequence is shown, tags or fusion partners need not be part of it. Ends that are not written are not given here.
# Assays:
# [1] = molecular target: soluble type I TNF receptor (UniProt P19438); test: phage display library screening on TNF receptors
# [2] = molecular target: soluble type II TNF receptor (UniProt P20333); test: phage display library screening on TNF receptors
Binder,binding [1],binding [2]
LLQPTMN [Leu-Leu-Gln-Pro-Thr-Met-Asn (SEQ. ID NO. 2)],binds,binds
FSPLHTSTYRPS [Phe-Ser-Pro-Leu-His-Thr-Ser-Thr-Tyr-Arg-Pro-Ser (SEQ. ID NO. 4)],binds,binds

# Continued, values first:
binding [1],binding [2],Binder
binds,binds,SVSVGMKPSPRP [Ser-Val-Ser-Val-Gly-Met-Lys-Pro-Ser-Pro-Arg-Pro (SEQ.ID NO. 3)]
binds,binds,TPKHLFL [Thr-Pro-Lys-His-Leu-Phe-Leu (SEQ. ID NO. 1)]
